PubChem BioAssay AID1159579 | Peter MacCallum Cancer Centre, 2015
Test: 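Find genes whose silencing alters migration of lymphatic endothelial cells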 (follow-up of hits). Cells: human dermal lymphatic endothelial cells. Knock-down reagent: single siRNA against human genes, 25 nM. Detection: 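High content images of wound closure area and cell nuclei counts, each the average of two wells, expressed against mock transfection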. Scale: migration relative to mock: higher = more migration into the scratch; mean nuclei count: higher = more cells remaining. Rule for the call: 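Called active when the migration ratio is 0.6 or lower (impaired) or 1.3 or higher (accelerated), but inactive whenever the mean nuclei count falls under 3300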. Meaning of the calls: active = migration changed (impaired or accelerated); inactive = no migration change, or too few cells.
The whole screen tested about 2,000 reagents; shown is a part drawn at random. Over the whole deposit, 549 (27%) got an active call. 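Some migration ratios are negative; siRNAs with too few cells are inactive whatever their migration ratio.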 A number with no mark means an inactive call. Reagents against one gene are numbered here. No sequences are given here. The record does not give: the time to read-out.

COPB2 #1
- migration relative to mock: 0.06 (active)
- migration and cell number class: migration reduced
- mean nuclei count: 5324

COPB2 #2
- migration relative to mock: 0.32 (active)
- migration and cell number class: migration reduced
- mean nuclei count: 4819

COPB2 #3
- migration relative to mock: 0.54 (active)
- migration and cell number class: migration reduced
- mean nuclei count: 4736

COPB2 #4
- migration relative to mock: 0.27 (active)
- migration and cell number class: migration reduced
- mean nuclei count: 5260

ITPKA #1
- migration relative to mock: 1.01
- migration and cell number class: no change in migration or cell number
- mean nuclei count: 5234

ITPKA #2
- migration relative to mock: 0.24 (active)
- migration and cell number class: migration reduced
- mean nuclei count: 4998

ITPKA #3
- migration relative to mock: -0.06 (active)
- migration and cell number class: migration reduced
- mean nuclei count: 3806

ITPKA #4
- migration relative to mock: 1.12
- migration and cell number class: no change in migration or cell number
- mean nuclei count: 6891

ZNF683 #1
- migration relative to mock: 0.94
- migration and cell number class: no change in migration or cell number
- mean nuclei count: 5468

ZNF683 #2
- migration relative to mock: 0.64
- migration and cell number class: no change in migration or cell number
- mean nuclei count: 4467

ZNF683 #3
- migration relative to mock: 0.74
- migration and cell number class: no change in migration or cell number
- mean nuclei count: 5300

ZNF683 #4
- migration relative to mock: 0.76
- migration and cell number class: no change in migration or cell number
- mean nuclei count: 5392

ALAS2 #1
- migration relative to mock: 0.68
- migration and cell number class: no change in migration or cell number
- mean nuclei count: 5559

ALAS2 #2
- migration relative to mock: 0.51 (active)
- migration and cell number class: migration reduced
- mean nuclei count: 5518

ALAS2 #3
- migration relative to mock: 0.86
- migration and cell number class: no change in migration or cell number
- mean nuclei count: 6628

ALAS2 #4
- migration relative to mock: 0.75
- migration and cell number class: no change in migration or cell number
- mean nuclei count: 7228

AHCY #1
- migration relative to mock: 0.78
- migration and cell number class: no change in migration or cell number
- mean nuclei count: 5008

AHCY #2
- migration relative to mock: 0.84
- migration and cell number class: no change in migration or cell number
- mean nuclei count: 6146

AHCY #3
- migration relative to mock: 0.94
- migration and cell number class: no change in migration or cell number
- mean nuclei count: 4354

AHCY #4
- migration relative to mock: 0.24 (active)
- migration and cell number class: migration reduced
- mean nuclei count: 4488

RSPH9 #1
- migration relative to mock: 0.86
- migration and cell number class: no change in migration or cell number
- mean nuclei count: 5872

RSPH9 #2
- migration relative to mock: 1.09
- migration and cell number class: no change in migration or cell number
- mean nuclei count: 5946

RSPH9 #3
- migration relative to mock: 0.85
- migration and cell number class: no change in migration or cell number
- mean nuclei count: 5940

RSPH9 #4
- migration relative to mock: 0.92
- migration and cell number class: no change in migration or cell number
- mean nuclei count: 6364

TMIGD2 #1
- migration relative to mock: 0.27 (active)
- migration and cell number class: migration reduced
- mean nuclei count: 5171

TMIGD2 #2
- migration relative to mock: -0.32 (active)
- migration and cell number class: migration reduced
- mean nuclei count: 3348

TMIGD2 #3
- migration relative to mock: 0.89
- migration and cell number class: no change in migration or cell number
- mean nuclei count: 5837

TMIGD2 #4
- migration relative to mock: 0.84
- migration and cell number class: no change in migration or cell number
- mean nuclei count: 6205

GLI1 #1
- migration relative to mock: 0.48 (active)
- migration and cell number class: migration reduced
- mean nuclei count: 6662

GLI1 #2
- migration relative to mock: 0.62
- migration and cell number class: no change in migration or cell number
- mean nuclei count: 5352

GLI1 #3
- migration relative to mock: 0.64
- migration and cell number class: no change in migration or cell number
- mean nuclei count: 4774

GLI1 #4
- migration relative to mock: 0.66
- migration and cell number class: no change in migration or cell number
- mean nuclei count: 6437

MICAL2 #1
- migration relative to mock: 0.84
- migration and cell number class: no change in migration or cell number
- mean nuclei count: 6524

MICAL2 #2
- migration relative to mock: 0.34 (active)
- migration and cell number class: migration reduced
- mean nuclei count: 5974

MICAL2 #3
- migration relative to mock: 1.04
- migration and cell number class: no change in migration or cell number
- mean nuclei count: 6898

MICAL2 #4
- migration relative to mock: -0.64 (active)
- migration and cell number class: migration reduced
- mean nuclei count: 4324

Entries above whose target name starts with I or i:
ITPKA #1
- migration relative to mock: 1.01
- migration and cell number class: no change in migration or cell number
- mean nuclei count: 5234

ITPKA #2
- migration relative to mock: 0.24 (active)
- migration and cell number class: migration reduced
- mean nuclei count: 4998

ITPKA #3
- migration relative to mock: -0.06 (active)
- migration and cell number class: migration reduced
- mean nuclei count: 3806

ITPKA #4
- migration relative to mock: 1.12
- migration and cell number class: no change in migration or cell number
- mean nuclei count: 6891
